Reference: patent publication US20070099891A1, “Medicinal compositions and combinations” (priority 2003, published 2007)

Tests used:
[1] = test system: rabbit with endogenous hyperlipemia caused by a casein diet load; test: Blood cholesterol lowering action in endogenous hyperlipemia rabbit (casein diet); type: in vivo, New Zealand White rabbit; conditions: for plasma LDL cholesterol / plasma total cholesterol: mean ± standard error
Experimental: 8 weeks old male New Zealand White rabbit were bred for 12 days with ad libitum water and feeding conditions (rabbit·guinea pig breeding feed RC4, Oriental Yeast Co., Ltd., Tokyo, Japan). Thereafter, the diet was replaced with the casein diet containing 27% casein (Oriental Yeast Co., Ltd., Tokyo, Japan), and then the restricted feeding to the 100 g per 3 kg weight was performed for one week. At this point, the blood was collected via auricular veins and the plasma total cholesterol amounts was measured and then these rabbits were divided such that the mean of the weight and the plasma total cholesterol were equal approximately. Thereafter, continuing the restricted feeding of casein diet, the each agent was administered in the following conditions for 3 weeks: compound A (1 mg/kg), atorvastatin (1 and 3 mg/kg), a combination of compound A (1 mg/kg) and atorvastatin (1 mg/kg), and a combination of compound A (1 mg/kg) and atorvastatin (3 mg/kg). Each agent was dissolved in propylene glycol containing 0.5% polyoxyethylenesorbitan monooleate (Tween 80) and then these were administered orally. On the other hand, for control group, the solvent (propylene glycol comprising 0.5% Tween 80) was administered orally. At one day after final administration, the blood was collected and plasma total cholesterol was measured and also the lipoprotein was fractioned according to the differential ultracentrifugation method (Nobuhiro, Yamada, Yasushi Sato edit.: Study strategy of Arteriosclerotic+Hyperlipemia, 63-69, 1996, Shujunsha Co. Ltd.), and then the amounts of cholesterol in the fraction of LDL were measured. The amount of total cholesterol in plasma and the amount of cholesterol in LDL fraction were determined by using an automatic biochemical analyzer (Biochemical Analyzer CHEM 1, Bayer Corporation, NY, USA).

HepG2 cell = test: LDL binding, uptake and degradation activity in cultured human hepatic cell line HepG2 ([125I]LDL); type: cell-based; conditions: for Uptake Amounts: mean ± standard error, 6 experiments
Experimental: The cultured human hepatic cell line HepG2 cell was purchased from the Dainippon Pharmaceuticals Co. Ltd. (Osaka, Japan). The determinations of LDL binding, uptake and degradation activity were performed according to a prior report (Method in Enzymology, 98, 241-255, 1983). Cells were seeded in a 24 well plate and were incubated in the Dulbecco's modified Eagle/F-12 (DMEM/F-12) medium containing 10% fetal bovine serum and antibiotics at 37° C. for two days. After washing the cells, a DMEM/F-12 medium containing 10% lipoprotein-removed serum, the test substrate and the antibiotics was added and the cells were incubated at 37° C. for 19 hours. After adding [^125I]LDL, the cells were incubated at 37° C. for another 5 hours. The culture supernatant was collected and trichloroacetic acid was added thereto, and then it was statically kept for 30 minutes or more at 4° C. After centrifuging (700×g, 4° C., 15 min.), the supernatant was separated and sodium iodide was added thereto, and further hydrogen peroxide was added. After treating the mixture at room temperature for 5 min., chloroform was added and the mixture was stirred. After centrifuging (700×g, 4° C., 5 min.), the radioactivity in the supernatant was measured by a gamma counter, and then the data thus obtained was evaluated as an amount of degradation of LDL. Separately, after washing the cells thoroughly, a dissociation buffer (50 mM NaCl, 10 mM 2-[4-(2-hydroxyethyl)-1-piperadinyl]ethane sulfonic acid (HEPES, pH 7.4), 10 mg/mL heparin) was added and then the cells were statically kept at 4° C. for 60 min. or more. […] Furthermore, 1N sodium hydroxide was added to the remaining cells and the mixture was reacted for more than 10 min. to dissolve the cells. […] On the other hand, the amounts of non-specific degradation, binding and uptake were evaluated by coexisting an excess of non-labeled LDL on addition of [^125I] LDL, while the amounts of specific degradation, binding and uptake were obtained by subtracting the amounts of non-specific degradation, binding and uptake from the total amounts of degradation, binding and uptake and further calibrating with the amounts of protein. For test substrate, N-[1-butyl-4-[3-[3-(hydroxy)propoxy]phenyl]-1,2-dihydro-2-oxo-1,8-naphthyridine-3-yl]-N′-(2,6-diisopropyl-4-aminophenyl)urea (hereinafter, referred to as compound A) and atorvastatin were used.

CC(C)c1c(C(=O)Nc2ccccc2)c(-c2ccccc2)c(-c2ccc(F)cc2)n1CC[C@@H](O)C[C@@H](O)CC(=O)O [Atorvastatin, atorvastatin]
plasma LDL cholesterol ([1]; 1 mg/kg orally for 3 weeks): 62 ± 18 mg/dL | plasma total cholesterol ([1]; 1 mg/kg orally for 3 weeks): 115 ± 18 mg/dL | plasma total cholesterol lowering action and plasma LDL cholesterol lowering action (in words) ([1]; 1 mg/kg, compared to control): did not show significant effects | plasma LDL cholesterol ([1]; 3 mg/kg orally for 3 weeks): 59 ± 16 mg/dL | plasma total cholesterol ([1]; 3 mg/kg orally for 3 weeks): 122 ± 15 mg/dL | amounts of binding, uptake and degradation of LDL (in words) (HepG2 cell; atorvastatin 0.1 to 10 μM): increased | Uptake Amounts (HepG2 cell; single agent 0.1 μM): 1043.4 ± 16.7 ng/mg protein | Uptake Amounts (HepG2 cell; single agent 1 μM): 1033.4 ± 52.8 ng/mg protein | Uptake Amounts (HepG2 cell; single agent 10 μM): 1145.0 ± 50.9 ng/mg protein
